{
  "source": "PubChem BioAssay AID504467",
  "about": "(National Center for Advancing Translational Sciences (NCATS), 2011)",
  "note": "The whole screen tested about 330,000 compounds, of which about 7,700 (2.3%) were called active. Inconclusive results, whose numbers are uncertain, are shown with a selection of clear calls. Calls come from the whole dose curve; as a rule, active = well fitted inhibition curve with a large enough effect; inconclusive = small, poorly fitted or top-dose-only effect, or effect the other way; inactive = flat fitted curve, though single readings scatter. A potency beside an inconclusive call is a rough fit, not a confirmed value. Potency is the fitted concentration of half-maximal effect.",
  "data": [
    {"experiment": "qHTS screen for small molecules that inhibit ELG1-dependent DNA repair in human embryonic kidney (HEK293T) cells expressing luciferase-tagged ELG1; note: nearly all actives have a fitted effect of over 55% in size", "conditions": "HEK293T ELG1-luciferase reporter, luminescence, 16 h, DNA damage induced by 5-fluorouridine; series mostly up to 46.1 µM", "how_it_was_run": "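HEK293T cells expressing luciferase-tagged ELG1 (2,000/well) received 5-Fluorouridine plus compound or DMSO for 16 hr at 37 °C. Luciferase was read by ONE-Glo luminescence after 30 min at room temperature.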", "values": [
      {"smiles": "N#Cc1nc(COc2ccccc2)oc1N1CCCC1", "Potency": "inconclusive: 23.1 µM [activator, single point]"},
      {"smiles": "COc1ccc(C/C(C)=N/NC(=S)Nc2ccc(C)c(C)c2)cc1", "Potency": "inconclusive: 13 µM [activator, partial curve]"},
      {"smiles": "CCCCNC(=S)NC1CCCC1", "Potency": "inactive"},
      {"smiles": "Cc1ccc(S(=O)(=O)N2CCN(C(=O)CN3CCOCC3)C2c2ccccc2)cc1", "note": "(stereo unspecified)", "Potency": "inconclusive: 18.4 µM [inhibitor, partial curve, poor fit]"},
      {"smiles": "COc1ccc2c(c1)CCCC21SC(NC(C)=O)=NN1C(C)=O", "note": "(stereo unspecified)", "Potency": "inactive"},
      {"smiles": "COc1ccc(S(=O)(=O)N(C)C[C@H]2Oc3c(NC(=O)Nc4ccc(C(F)(F)F)cc4)cccc3C(=O)N([C@H](C)CO)C[C@@H]2C)cc1", "Potency": "inconclusive: 20.6 µM [inhibitor, partial curve]"},
      {"smiles": "COc1ccc(-c2cc(C(=O)N(C)CC(=O)Nc3ccccc3Br)c3ccccc3n2)cc1OC", "Potency": "inconclusive: 2.59 µM [inhibitor, full curve]"},
      {"smiles": "CC(C)(C)OC(=O)N1CCC[C@@H]1CO", "Potency": "inactive"},
      {"smiles": "OCCN=C1CCCc2c1[nH]c1ccc(Br)cc21", "Potency": "inactive"},
      {"smiles": "CCOc1ccc(CN2CCN(c3ncnc4scc(-c5ccccc5)c34)CC2)cc1", "Potency": "inactive"},
      {"smiles": "C=CCONC(=O)Cc1ccccc1", "Potency": "inactive"},
      {"smiles": "COc1cccc(N=C2CC(C)(C)CC(=O)/C2=C(/O)c2ccccc2)c1", "Potency": "inactive"},
      {"smiles": "O=C1/C(=C/c2ccc(Br)cc2)Oc2cc(O)ccc21", "Potency": "inconclusive: 18.3 µM [activator, partial curve]"},
      {"smiles": "O=C(Nc1cccc(S(=O)(=O)N2CCCCC2)c1)C1CCN(C(=O)c2ccc(Cl)cc2)CC1", "Potency": "inconclusive: 16.4 µM [inhibitor, single point]"},
      {"smiles": "Cc1ccc(C(=O)/C=C/Nc2ccc(S(=O)(=O)Nc3cc(C)nc(C)n3)cc2)cc1", "Potency": "inconclusive: 29.1 µM [activator, partial curve, poor fit]"},
      {"smiles": "O=C(Nc1ccccc1)Nc1scc2c1c(=O)oc1ccccc12", "Potency": "inconclusive: 6.51 µM [activator, partial curve]"},
      {"smiles": "Cc1ccc(NC(=O)Nc2nnc(Cc3ccc([N+](=O)[O-])cc3)s2)cc1", "Potency": "inconclusive: 20.6 µM [activator, single point]"},
      {"smiles": "Cc1onc(-c2ccccc2)c1C(=O)OCC(=O)Nc1ccc(OC(F)(F)F)cc1", "Potency": "inconclusive: 14.6 µM [inhibitor, single point]"},
      {"smiles": "COc1ccc(CC(=O)O/N=C(\\N)c2ccc(OC)cc2)cc1", "Potency": "inconclusive: 14.6 µM [activator, partial curve]"},
      {"smiles": "COc1ccc2[nH]c(C(=O)N/N=C/c3cc(OC)c(OC)c(OC)c3)cc2c1", "Potency": "inconclusive: 13 µM [inhibitor, partial curve]"},
      {"smiles": "COc1ccccc1NS(=O)(=O)c1cccc(C(=O)NNC(=O)c2ccc(Cl)nc2)c1", "Potency": "inconclusive: 29.1 µM [inhibitor, single point]"},
      {"smiles": "C[C@@H]1O[C@@H](OCCC(=O)O)[C@H](O)C[C@H]1O", "Potency": "inconclusive: 18.3 µM [activator, partial curve, poor fit]"},
      {"smiles": "COc1ccc(-c2nc3ncnn3cc2C)cc1F", "Potency": "inactive"},
      {"smiles": "CCOC(=O)c1cccc(NC(=O)C2CCCN(c3nnc(N4CCCC4=O)s3)C2)c1", "note": "(stereo unspecified)", "Potency": "inactive"},
      {"smiles": "Cc1ccc(NC(=O)Nc2ccc(Cl)cn2)cc1", "Potency": "inconclusive: 23.1 µM [activator, partial curve]"},
      {"smiles": "NC(=O)CSc1ncnc2c1oc1ccccc12", "Potency": "inactive"},
      {"smiles": "O=C(c1coc(=O)c(Br)c1)N1CCCc2ccccc21", "Potency": "inconclusive: 16.4 µM [activator, single point]"},
      {"smiles": "O=C(Nc1ccc2ccccc2c1)c1ccc(Cl)cc1Cl", "Potency": "inconclusive: 0.517 µM [activator, full curve]"},
      {"smiles": "CC(=O)N(CCC(Cc1ccccc1)c1ccc2c(c1)OCO2)Cc1ccccc1F", "note": "(stereo unspecified)", "Potency": "inactive"},
      {"smiles": "COc1ccc(-n2nc3c(c2NC(=O)c2ccc(S(=O)(=O)N4CCOCC4)cc2)CS(=O)C3)cc1", "note": "(stereo unspecified)", "Potency": "inactive"},
      {"smiles": "c1ccc(CCC2CCCCN2Cc2cn[nH]c2-c2cc3ccccc3o2)nc1", "note": "(stereo unspecified)", "Potency": "inactive"},
      {"smiles": "CCN(CCO)C(=O)CC1C(=O)NCCN1Cc1c(F)cccc1Cl", "note": "(stereo unspecified)", "Potency": "inconclusive: 18.3 µM [activator, partial curve, poor fit]"},
      {"smiles": "COc1ccc(OC)c(CCNC(=O)c2ccccc2NC(=O)C2=C(C)OCCS2)c1", "Potency": "inconclusive: 29.1 µM [inhibitor, single point]"},
      {"smiles": "CC(=O)Nc1ccc(-c2csc(Nc3ccccn3)n2)cc1", "Potency": "inconclusive: 1.83 µM [activator, partial curve, poor fit]"},
      {"smiles": "Cc1cccc(N2CCN(C(=O)c3cc4n(n3)C(C(F)(F)F)CC(c3ccco3)N4)CC2)c1C", "note": "(stereo unspecified)", "Potency": "active: 20.6 µM"},
      {"smiles": "O=C(NCCS(=O)(=O)NCc1cccnc1)c1ccccc1", "Potency": "inactive"},
      {"smiles": "CCCN(CCC)CC(C)(C)NS(=O)(=O)c1ccc(Cl)cc1", "Potency": "inactive"},
      {"smiles": "COc1cc(-c2nc3cc(C)ccn3c2NC2CCCCC2)ccc1-c1ccc(C(C)=O)cc1", "Potency": "inconclusive: 31.6 µM [inhibitor, single point]"},
      {"smiles": "O=C1NC(=O)/C(=C\\c2ccc(Cl)nc2)S1", "Potency": "inconclusive: 23.1 µM [activator, partial curve]"},
      {"smiles": "Cc1ccc(-c2nc3c(c(=O)[nH]c(=O)n3Cc3ccccc3)n2Cc2ccccc2)o1", "Potency": "inconclusive: 16.4 µM [inhibitor, single point]"},
      {"smiles": "CCOc1cc(C#N)c(NC(=O)c2cccnc2)cc1OCC", "Potency": "inactive"},
      {"smiles": "Cc1nc(NC(=O)c2ccco2)sc1C(=O)Nc1ccc(Br)cc1", "Potency": "inactive"},
      {"smiles": "O=C(CNC(=O)c1ccc(Br)o1)NNC(=O)COc1ccccc1Cl", "Potency": "inactive"},
      {"smiles": "CCn1c(SCC(=O)Nc2nc3c(s2)CCCC3)nnc1-c1ccccc1", "Potency": "inconclusive: 2.82 µM [inhibitor, single point]"},
      {"smiles": "O=C(c1ccc(S(=O)(=O)N2CCCCCC2)cc1)N1CCN(Cc2ccccc2)CC1", "Potency": "inconclusive: 29.1 µM [inhibitor, single point]"},
      {"smiles": "Cc1ccccc1-c1noc(-c2ccccc2C(=O)O)n1", "Potency": "inconclusive: 20.6 µM [activator, partial curve]"}
    ]}
  ]
}
